Source: the supplement of paper PMC10849652
Some of the results follow.

Chains of the proteins cited; added tags and fusions are not shown. Lines headed by an entry give the natural chain unless they say otherwise; changes in a name come on top.
UniProt Q13951, whole entry, looked up: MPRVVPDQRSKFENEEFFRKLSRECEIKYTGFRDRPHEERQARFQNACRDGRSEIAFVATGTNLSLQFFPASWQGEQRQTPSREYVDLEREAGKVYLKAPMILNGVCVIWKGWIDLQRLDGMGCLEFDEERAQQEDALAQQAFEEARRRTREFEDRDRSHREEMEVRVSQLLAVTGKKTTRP
UniProt Q9HC52: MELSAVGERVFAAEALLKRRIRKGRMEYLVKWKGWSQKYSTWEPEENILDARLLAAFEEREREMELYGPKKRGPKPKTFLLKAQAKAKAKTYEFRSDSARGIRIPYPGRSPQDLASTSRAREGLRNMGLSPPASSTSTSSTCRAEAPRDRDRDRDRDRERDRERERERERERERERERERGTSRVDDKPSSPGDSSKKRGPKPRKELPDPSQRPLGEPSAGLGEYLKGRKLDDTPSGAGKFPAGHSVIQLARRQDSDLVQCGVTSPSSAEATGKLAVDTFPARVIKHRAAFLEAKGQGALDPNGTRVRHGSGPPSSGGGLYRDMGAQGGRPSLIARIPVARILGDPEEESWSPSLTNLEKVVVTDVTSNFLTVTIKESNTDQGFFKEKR
UniProt Q96JN2: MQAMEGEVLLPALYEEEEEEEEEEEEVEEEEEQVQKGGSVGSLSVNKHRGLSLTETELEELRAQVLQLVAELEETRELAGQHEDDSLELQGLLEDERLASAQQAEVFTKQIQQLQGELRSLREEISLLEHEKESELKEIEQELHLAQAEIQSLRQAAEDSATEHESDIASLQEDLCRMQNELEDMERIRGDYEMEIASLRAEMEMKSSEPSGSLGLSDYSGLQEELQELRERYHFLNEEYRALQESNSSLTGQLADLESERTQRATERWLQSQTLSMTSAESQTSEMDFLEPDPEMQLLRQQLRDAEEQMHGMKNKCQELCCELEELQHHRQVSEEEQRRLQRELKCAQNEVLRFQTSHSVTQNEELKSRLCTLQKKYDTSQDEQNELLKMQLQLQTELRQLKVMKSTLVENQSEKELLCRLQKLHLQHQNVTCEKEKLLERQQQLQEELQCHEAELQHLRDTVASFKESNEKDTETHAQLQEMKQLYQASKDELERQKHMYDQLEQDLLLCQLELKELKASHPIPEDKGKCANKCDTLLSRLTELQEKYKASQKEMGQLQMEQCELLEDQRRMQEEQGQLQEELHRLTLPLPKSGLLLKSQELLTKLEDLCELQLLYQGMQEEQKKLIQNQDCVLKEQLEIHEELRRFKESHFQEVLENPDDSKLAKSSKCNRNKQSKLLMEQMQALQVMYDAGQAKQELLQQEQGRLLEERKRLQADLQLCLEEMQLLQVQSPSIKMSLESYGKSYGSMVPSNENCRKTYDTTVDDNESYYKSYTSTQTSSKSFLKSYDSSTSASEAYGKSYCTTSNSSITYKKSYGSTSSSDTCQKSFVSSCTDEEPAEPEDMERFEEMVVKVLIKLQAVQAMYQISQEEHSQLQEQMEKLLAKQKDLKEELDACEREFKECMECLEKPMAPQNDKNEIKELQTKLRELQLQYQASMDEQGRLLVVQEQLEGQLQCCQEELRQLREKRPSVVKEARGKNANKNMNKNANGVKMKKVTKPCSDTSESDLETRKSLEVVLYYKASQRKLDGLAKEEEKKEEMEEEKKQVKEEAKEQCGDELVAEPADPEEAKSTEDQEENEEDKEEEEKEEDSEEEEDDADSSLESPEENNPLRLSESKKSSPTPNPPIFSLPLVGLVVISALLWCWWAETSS
UniProt Q92526, whole entry, looked up: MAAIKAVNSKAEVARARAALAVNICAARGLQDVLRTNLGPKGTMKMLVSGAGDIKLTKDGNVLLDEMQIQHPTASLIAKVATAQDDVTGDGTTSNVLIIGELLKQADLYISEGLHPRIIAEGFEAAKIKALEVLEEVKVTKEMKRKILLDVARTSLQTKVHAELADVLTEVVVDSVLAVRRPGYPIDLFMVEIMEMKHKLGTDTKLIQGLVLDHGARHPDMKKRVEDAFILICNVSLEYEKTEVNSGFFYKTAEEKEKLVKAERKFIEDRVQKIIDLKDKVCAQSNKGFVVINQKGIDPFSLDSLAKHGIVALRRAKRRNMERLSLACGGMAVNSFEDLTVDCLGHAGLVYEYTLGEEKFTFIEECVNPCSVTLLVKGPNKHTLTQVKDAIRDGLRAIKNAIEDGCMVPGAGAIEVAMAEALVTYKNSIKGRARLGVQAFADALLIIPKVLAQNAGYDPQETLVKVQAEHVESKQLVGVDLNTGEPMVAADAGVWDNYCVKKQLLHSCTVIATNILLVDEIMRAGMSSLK
UniProt P19397: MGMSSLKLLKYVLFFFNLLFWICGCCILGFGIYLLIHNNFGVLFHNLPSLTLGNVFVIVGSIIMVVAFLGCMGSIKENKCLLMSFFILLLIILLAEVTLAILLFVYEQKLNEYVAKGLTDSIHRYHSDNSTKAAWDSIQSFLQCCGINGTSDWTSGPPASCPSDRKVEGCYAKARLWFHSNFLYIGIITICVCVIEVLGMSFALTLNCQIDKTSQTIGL
UniProt O43303: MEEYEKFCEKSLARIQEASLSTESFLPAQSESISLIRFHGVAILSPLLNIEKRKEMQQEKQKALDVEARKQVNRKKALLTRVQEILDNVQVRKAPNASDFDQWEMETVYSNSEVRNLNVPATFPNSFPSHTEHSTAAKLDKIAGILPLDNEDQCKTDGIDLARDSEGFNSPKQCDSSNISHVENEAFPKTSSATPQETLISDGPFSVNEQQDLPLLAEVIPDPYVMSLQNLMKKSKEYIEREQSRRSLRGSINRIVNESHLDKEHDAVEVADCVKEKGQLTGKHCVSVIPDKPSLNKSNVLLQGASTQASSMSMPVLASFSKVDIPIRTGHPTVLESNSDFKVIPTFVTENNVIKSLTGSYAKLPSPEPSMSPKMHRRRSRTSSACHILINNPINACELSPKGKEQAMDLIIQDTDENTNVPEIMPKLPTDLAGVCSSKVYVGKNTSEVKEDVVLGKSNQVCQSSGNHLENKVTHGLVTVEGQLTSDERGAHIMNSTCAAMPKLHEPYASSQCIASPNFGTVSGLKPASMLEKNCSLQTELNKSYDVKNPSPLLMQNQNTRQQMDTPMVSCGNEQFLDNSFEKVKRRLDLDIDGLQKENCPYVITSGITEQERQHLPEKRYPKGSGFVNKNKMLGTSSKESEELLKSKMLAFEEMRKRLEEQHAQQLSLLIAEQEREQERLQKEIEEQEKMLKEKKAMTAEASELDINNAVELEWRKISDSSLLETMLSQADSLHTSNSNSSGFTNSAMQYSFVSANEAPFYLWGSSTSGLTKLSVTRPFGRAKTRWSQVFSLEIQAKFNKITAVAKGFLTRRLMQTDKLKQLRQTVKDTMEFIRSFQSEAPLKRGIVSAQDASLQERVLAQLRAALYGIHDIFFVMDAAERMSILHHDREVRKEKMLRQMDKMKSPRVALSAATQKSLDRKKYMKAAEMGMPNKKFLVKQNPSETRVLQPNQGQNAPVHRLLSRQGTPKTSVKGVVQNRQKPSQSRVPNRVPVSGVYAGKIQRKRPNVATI

Legend:
Test in all cases: log2 fold change, soluble protein after heating vs DMSO (PISA); higher = thermal stabilisation; K562 lysate, 10 uM; active = over 0.2 and 3.5 SD of the protein, either way, in both replicates (recomputed)
[1] = compound: CCCS(=O)(=O)Nc1ccc(F)c(C(=O)c2c[nH]c3ncc(Cl)cc23)c1F
How it was run: (§1)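 To prepare the extract, K562 pellets were dounce-homogenised in PBS pH 7.4 with 1 mM MgCl2, giving crude material at 1 mg/mL protein. This was treated with 10 μM compound for 30 min, then heated in aliquots for 3 min over 48°C-58°C before pooling and addition of NP-40 to 0.5% at 4°C. Centrifugation at 21,000xg for 90 min left soluble protein in the supernatant, which TMTpro 16plex LC-MS/MS quantified with equalised channel sums. Results are log-two fold changes in thermal stability compared with solvent controls, from duplicates.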

[2] = compound: CCN(CCCOc1ccc2c(Nc3cc(CC(=O)Nc4cccc(F)c4)[nH]n3)ncnc2c1)CCOP(=O)(O)O [barasertib]
How it was run: as §1

[3] = compound: CC[C@@H]1C(=O)N(C)c2cnc(Nc3ccc(C(=O)NC4CCN(C)CC4)cc3OC)nc2N1C1CCCC1
How it was run: as §1

[4] = compound: CC[C@@H]1C(=O)N(C)c2cnc(Nc3ccc(C(=O)N[C@H]4CC[C@H](N5CCN(CC6CC6)CC5)CC4)cc3OC)nc2N1C(C)C [volasertib]
How it was run: as §1

[5] = compound: CCn1c(C(=O)N(C2CC2)C2CC2)cc2c3c(ncn3C)c(Nc3cc(C)n(C)n3)nc21
How it was run: as §1

[6] = compound: CCn1cc(-c2ccnc3[nH]c(-c4cccc(CN(C)C)c4)cc23)c(-c2ccc(NC(=O)N(C)C)cc2)n1
How it was run: as §1

[7] = compound: CN1CCC(CNc2ccc3ncc(-c4cccc(OC(F)(F)F)c4)n3n2)CC1
How it was run: as §1

[8] = compound: CN1CCN(CCOc2cc(OC3CCOCC3)c3c(Nc4c(Cl)ccc5c4OCO5)ncnc3c2)CC1 [saracatinib]
How it was run: as §1

[9] = compound: CN1CCN(c2nc(C3=C(c4c[nH]c5ccccc45)C(=O)NC3=O)c3ccccc3n2)CC1 [sotrastaurin]
How it was run: as §1

[10] = compound: CN1CC[C@H](c2c(O)cc(O)c3c(=O)cc(-c4ccccc4Cl)oc23)[C@H](O)C1 [alvocidib]
How it was run: as §1

[11] = compound: CN1CCc2c(c3ccccc3n2Cc2ccc(C(=O)NO)cc2)C1 [Tubastatin A]
How it was run: as §1

[12] = compound: CNC(=O)C1=CC=CC=C1NC2=NC(=NC=C2Cl)NC3=C(C=C(C=C3)N4CCOCC4)OC
How it was run: as §1

[13] = compound: CNc1nc(-c2ccc3c(N)n[nH]c3c2)cc(N2C[C@@H](C(=O)NC3CCCCC3)CC[C@H]2C)n1
How it was run: as §1

[14] = compound: COC(=O)N[C@@H](C)CNc1nccc(-c2cn(C(C)C)nc2-c2cc(Cl)cc(NS(C)(=O)=O)c2F)n1 [encorafenib]
How it was run: as §1

[15] = compound: COC(=O)[C@H](CCSC)NC(=O)C1=C(C=C(C=C1)NC[C@H](CS)N)C2=CC=CC=C2
How it was run: as §1

[16] = compound: COc1cc(Nc2ncc3c(n2)-c2ccc(Cl)cc2C(c2c(F)cccc2OC)=NC3)ccc1C(=O)O [alisertib]
How it was run: as §1

[17] = compound: COc1cc2nc(-c3cc(F)ccc3O)nc(N[C@@H]3CNC[C@H]3C(C)(C)O)c2cc1OC
How it was run: as §1

[18] = compound: COc1cc2ncnc(Nc3ccc(F)c(Cl)c3)c2cc1OCCCN1CCOCC1 [gefitinib]
How it was run: as §1

[19] = compound: CCCS(=O)(=O)Nc1ccc(F)c(C(=O)c2c[nH]c3ncc(-c4ccc(Cl)cc4)cc23)c1F [vemurafenib]
How it was run: as §1

[20] = compound: CNC(=O)c1ccc(Nc2ncc(C(F)(F)F)c(NCc3nccnc3N(C)S(C)(=O)=O)n2)cc1 [defactinib]
How it was run: as §1

Measured: log2 fold change

CBFB (UniProt Q13951)
inactive: [1] 0.057 | [2] 0.045 | [3] -0.015 | [4] 0.013 | [5] 0.041 | [6] 0.028 | [7] -0.05 | [8] 0.009 | [9] -0.038 | [10] -0.002 | [11] 0.018 | [12] -0.012 | [13] -0.019 | [14] -0.015 | [15] -0.017 | [16] 0.002 | [17] -0.018 | [18] -0.028

CBX8 (UniProt Q9HC52)
inactive: [19] -0.101 | [3] 0.419 | [9] -0.05 | [20] -0.186 | [14] 0.12 | [15] -0.04

CCDC136 isoform 4 (UniProt Q96JN2)
inactive: [19] -0.017 | [3] 0.07 | [6] 0.082 | [7] -0.027 | [8] 0.168 | [9] -0.018 | [10] 0.136 | [12] 0.023 | [20] 0.005 | [13] 0.061 | [14] -0.018 | [15] 0.055

CCT6B (UniProt Q92526)
inactive: [1] 0.016 | [2] 0.131 | [4] 0.012 | [6] -0.052 | [7] 0.116 | [10] 0.117 | [17] 0.094

CD53 (UniProt P19397)
inactive: [19] 0.05 | [1] -0.073 | [2] 0.027 | [3] -0.035 | [4] -0.033 | [5] 0.004 | [6] -0.145 | [7] 0.095 | [9] 0.053 | [10] 0.009 | [11] -0.011 | [12] 0.04 | [20] -0.016 | [14] 0.082 | [15] -0.059 | [16] 0.041 | [17] 0.03 | [18] 0.085

CCP110 (UniProt O43303)
inactive: [19] -0.202 | [2] 0.07 | [3] -0.141 | [5] -0.022 | [8] -0.06 | [9] 0.005 | [11] -0.045 | [12] -0.115 | [20] 0.181 | [13] 0.008 | [14] 0.075 | [15] 0.125
